From the supplement of paper PMC12819154, “High-throughput peptide-centric local stability assay extends protein–ligand identification to membrane proteins, tissues and bacteria” (Nature Structural & Molecular Biology, 2025)
The entries are a selection whose mix differs from that of the whole data set. Small differences around the control level are noise.

Amino acid sequences for entries named in this document (tags omitted). A change or cut given only in a name is not applied to a line headed by its entry.
UniProt P0ADP7: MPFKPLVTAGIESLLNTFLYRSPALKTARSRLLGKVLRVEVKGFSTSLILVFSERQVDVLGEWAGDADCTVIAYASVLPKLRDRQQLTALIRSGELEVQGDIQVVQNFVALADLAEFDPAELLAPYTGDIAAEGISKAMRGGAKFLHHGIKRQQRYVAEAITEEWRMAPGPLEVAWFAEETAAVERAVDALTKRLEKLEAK

The compounds below were run against UniProt P0ADP7 (assay: log2 fold change of tryptic peptide abundance, ligand vs vehicle (limited proteolysis) (log2 ratio); higher = more trypsin-susceptible (destabilized)). Details: peptide sequence: QQLTALIR; peptide start residue: 85; ligand concentration: 5 mM; sample: E. coli desalted lysate; replicate design: treated before aliquoting.
Method: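 HT-PELSA: desalted E. coli K-12 BW25113 lysate (with 12 mM MgCl2) incubated with 5 mM ATP (pH 7) or water for 30 min at 25 C, then a 4 min trypsin pulse at 22 C. Peptides were quantified by DIA-MS (4 replicates). Value is the peptide log2 fold change (treated/control); negative = stabilized. Scale: negative = ligand-stabilized region.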
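Note: lysate desalted by size exclusion to strip endogenous ATP, peptide intensities built from DIA-NN precursor signals, and peptides missing any value discarded before comparison.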

Compound	log2 fold change
Nc1ncnc2c1ncn2[C@@H]1O[C@H](COP(=O)(O)OP(=O)(O)OP(=O)(O)O)[C@@H](O)[C@H]1O [adenosine 5'-triphosphate]	0.412
